In patent US11723929B2, “Methods of improving cell-based therapy” (THE REGENTS OF THE UNIVERSITY OF CALIFORNIA, priority 2017, dated 2023):
At least one structure is not confirmed: it was looked up by name or label, or the drawing left a doubt.

Tests used:
ERK1/2 = assay: pERK1/2 in TNF-α stimulated hiPSC-CMs in vitro by flow cytometry; assay type: cell-based, human; details: TNF-α 20 ng/ml for 20 minutes, TPPU 1 μM
[1] = system: murine myocardial infarction (MI) model; assay: Infarct size and fibrosis in cardiac sections after MI; details: 4 weeks after MI
[2] = system: transplanted hiPSC-CMs, host non-myocyte cells (NMCs) and cardiomyocytes (CMs); assay: Flow cytometry of ROS (CellRox) in cells isolated from MI hearts; assay type: in vivo, mouse
[3] = system: murine myocardial infarction (MI) model; assay: In vivo hemodynamic monitoring after MI; parameters: species or system mouse; details: MI mice, TPPU and hiPSC-CM treatment vs MI
[4] = system: transplanted hiPSC-CMs, host non-myocyte cells (NMCs) and cardiomyocytes (CMs); assay: Flow cytometry of apoptosis (Annexin V) in cells isolated from MI hearts; assay type: in vivo, mouse
[5] = hiPSC-CM transplanted-TPPU treated vs MI, MI+hiPSC-CMs and MI+TPPU
[6] = hiPSC-CM transplanted-TPPU treated vs MI, MI+hiPSC-CM and MI+TPPU

CCC(=O)N1CCC(NC(=O)Nc2ccc(OC(F)(F)F)cc2)CC1 [TPPU]
pERK1/2 level (ERK1/2): significantly decreased | infarct size, TPPU+hiPSC-CM-treated hearts compared to the TPPU- or cell-treated hearts ([1]; combination with hiPSC-CM, though not significant): further decrease | infarct size and cardiac dilatation post MI, compared to the MI hearts ([1]; single treatment (TPPU or hiPSC-CM)): significantly decrease | ROS levels in transplanted hiPSC-CMs ([2]; MI+hiPSC-CM+TPPU vs MI+hiPSC-CM without sEHI): significant decrease | ROS levels in host CMs [2, 5]: significant decrease | ROS levels in host NMCs [2, 5]: significant decrease | end-systolic pressure (ESP) [3]: improved | maximum dP/dt [3]: improved | slope of the end systolic P-V relationship (Ees) [3]: improved | apoptosis in host CMs [4, 6]: significant decrease | apoptosis in host NMCs [4, 6]: significant decrease | apoptosis in transplanted hiPSC-CM ([4]; with TPPU treatment vs without): significantly decreased
